Read-outs that look alike come from different tables or passages of the source.
Assay: Capture and release of target molecule by cross-linked polymer (HDI-linked cyclodextrin), slurry protocol
Format: physicochemical
Details: for capture in EtOH only: Example 8
[1] = Example 1, 1 mg/mL CBD in 1:1 ethanol:water, polymer:CBD 10:1
[2] = Example 2, 68 mg CBD, 1 mg/mL in 1:1 ethanol:water, polymer:CBD 10:1
[3] = Example 4 as restated in Example 16, CBD and CBG together
[4] = Example 16, 20 mg CBD + 20 mg CBG, 100 mg polymer, 1:1 ethanol:water
[5] = Example 21, ethanol extract of hops, 10:1

For C=C(C)[C@@H]1CCC(C)=C[C@H]1c1c(O)cc(CCCCC)cc1O [CBD, cannabidiol], the “selectivity between CBD and CBG” value was “No significant selectivity”, the CBD captured [1] was about 1.7 mg and the “percent of CBD captured” value [1] was “About 15%”. For the same compound, the CBD captured [2] was 11.6 mg, the “percent of CBD captured” value [2] was “about 17%” and the “percent of CBD captured” value (Example 3, 1 mg/mL, polymer:CBD 50:1, after 10 minutes) was 40 to 45%. For the same compound, the CBD captured (Example 3, 500 mg polymer, 50:1, after 10 minutes) was 4.0 to 4.5 mg, the “capture at 50:1 relative to 10:1” value (Example 3, after 10 minutes) was 4 to 5 times and the percent recovered [3] was 45%. The “fold increase 50:1 vs 10:1” value (Example 7, 2 mg/mL) was 2.3 fold, the “capture in EtOH only” value (2 mg/mL, polymer:CBD 10:1) was “no significant capture” and the “capture in EtOH only” value (4 mg/mL, polymer:CBD 10:1) was “no significant capture”. The percent capture (Example 10, water slowly added to 3:7 EtOH:H2O, 2 mg/mL) was 98%, the “percent of CBD captured” value (Example 12, fresh cross-linked polymer, 2 mg/mL 1:1, 10:1) was 23% and the “percent of CBD captured” value (Example 12, reconstituted (recycled) cross-linked polymer) was 24%. For the same compound, the “percent of CBD captured” value (Example 12, second run of fresh cross-linked polymer) was 25%, the “plateau of mg captured” value (Example 15, 100 mg polymer, 2 mg/mL, 5-20 mL) was 3.2 mg and the percent recovered [4] was 17%. For the same compound, the amount recovered (Example 16, 100 mg polymer) was 3.4 mg, the percent capture (Example 18, 100 mg polymer, 3:7 ethanol:water, all CBD amounts) was “over 98%” and the “release in ethanol extract of hops relative to pure ethanol” value (Example 20, first trial) was “about 52%”. For the same compound, the “capture in ethanol extract of hops relative to pure ethanol” value (Example 20, polymer:CBD 10:1) was 56% to 74, the “release in ethanol extract of hops relative to pure ethanol” value (Example 20, second trial) was “about 50%” and the CBD captured [5] was 9.6 mg. For the same compound, the CBD released [5] was 5.5 mg, the CBD captured (Example 21, pure ethanol, 10:1) was “about 9.8 mg” and the CBD released (Example 21, pure ethanol, 10:1) was “about 9.8 mg”. The “mass of collected CBD” value (Example 47, release by butane stream 10 min, 0.5 g polymer) was 18.6 mg, the “mass of collected CBD” value (Example 47, release by mixture of liquidized gases (hydrocarbons, carbon dioxide) 10 min, 0.5 g polymer) was 36.3 mg and the “mass of collected CBD” value (Example 48, heat-driven release, short-path distillation, 1.0 g polymer) was 39.4 mg.

In the case of CCCCCc1cc(O)c(C/C=C(\C)CCC=C(C)C)c(O)c1 [CBG, cannabigerol], the amount captured (Example 4, 500 mg polymer) is reported as 4.5 to 5.0 mg, the percent captured (Example 4, 500 mg polymer, 10 mg CBG) is reported as 45 to 50% and the “selectivity between CBD and CBG” value (Example 4, CBD and CBG in competition) is reported as “No significant selectivity”. The percent recovered [3] was 54%, the percent recovered [4] was 24% and the amount recovered (Example 16, 100 mg polymer) was 4.8 mg.
